Data as given in the supplement of paper PMC10849652.
The list shows a part of the results.

Sequences of proteins named here, by UniProt entry; tags and fusion partners are left off. A change or cut given only in a name is not applied to a line headed by its entry.
UniProt Q15165: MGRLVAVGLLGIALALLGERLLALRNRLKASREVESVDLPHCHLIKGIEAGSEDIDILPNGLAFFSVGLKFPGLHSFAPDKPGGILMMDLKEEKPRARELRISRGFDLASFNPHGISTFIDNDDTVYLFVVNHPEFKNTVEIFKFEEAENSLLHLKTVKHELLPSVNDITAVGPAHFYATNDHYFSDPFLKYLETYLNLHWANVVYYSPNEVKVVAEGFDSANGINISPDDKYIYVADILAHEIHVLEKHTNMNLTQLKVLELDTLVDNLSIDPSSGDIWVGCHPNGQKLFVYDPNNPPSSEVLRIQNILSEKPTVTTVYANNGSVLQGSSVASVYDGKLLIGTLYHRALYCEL
UniProt Q9NZ53: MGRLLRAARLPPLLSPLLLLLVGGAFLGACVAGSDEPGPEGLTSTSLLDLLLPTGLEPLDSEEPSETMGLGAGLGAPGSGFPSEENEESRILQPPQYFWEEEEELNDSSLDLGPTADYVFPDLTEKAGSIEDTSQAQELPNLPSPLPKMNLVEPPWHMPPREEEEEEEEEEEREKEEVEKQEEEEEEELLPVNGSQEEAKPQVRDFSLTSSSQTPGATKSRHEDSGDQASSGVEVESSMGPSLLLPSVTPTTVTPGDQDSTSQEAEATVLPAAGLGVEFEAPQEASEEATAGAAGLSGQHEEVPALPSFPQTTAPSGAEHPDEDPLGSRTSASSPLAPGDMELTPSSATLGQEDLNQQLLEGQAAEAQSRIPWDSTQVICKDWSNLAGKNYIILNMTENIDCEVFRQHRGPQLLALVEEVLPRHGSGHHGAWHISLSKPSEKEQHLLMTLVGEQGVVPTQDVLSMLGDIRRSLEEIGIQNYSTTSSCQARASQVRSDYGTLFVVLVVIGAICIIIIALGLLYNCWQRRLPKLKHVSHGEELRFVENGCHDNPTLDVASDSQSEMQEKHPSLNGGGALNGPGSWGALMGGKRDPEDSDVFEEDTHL
UniProt O15162: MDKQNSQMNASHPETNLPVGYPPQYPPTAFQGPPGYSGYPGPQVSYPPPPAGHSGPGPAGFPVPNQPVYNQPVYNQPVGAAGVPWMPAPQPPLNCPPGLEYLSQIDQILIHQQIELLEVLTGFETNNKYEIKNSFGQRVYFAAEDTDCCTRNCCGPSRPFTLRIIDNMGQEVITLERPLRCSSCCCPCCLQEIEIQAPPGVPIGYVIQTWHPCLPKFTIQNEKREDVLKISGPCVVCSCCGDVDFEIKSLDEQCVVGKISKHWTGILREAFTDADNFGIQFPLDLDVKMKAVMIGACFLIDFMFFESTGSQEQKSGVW
UniProt O15031: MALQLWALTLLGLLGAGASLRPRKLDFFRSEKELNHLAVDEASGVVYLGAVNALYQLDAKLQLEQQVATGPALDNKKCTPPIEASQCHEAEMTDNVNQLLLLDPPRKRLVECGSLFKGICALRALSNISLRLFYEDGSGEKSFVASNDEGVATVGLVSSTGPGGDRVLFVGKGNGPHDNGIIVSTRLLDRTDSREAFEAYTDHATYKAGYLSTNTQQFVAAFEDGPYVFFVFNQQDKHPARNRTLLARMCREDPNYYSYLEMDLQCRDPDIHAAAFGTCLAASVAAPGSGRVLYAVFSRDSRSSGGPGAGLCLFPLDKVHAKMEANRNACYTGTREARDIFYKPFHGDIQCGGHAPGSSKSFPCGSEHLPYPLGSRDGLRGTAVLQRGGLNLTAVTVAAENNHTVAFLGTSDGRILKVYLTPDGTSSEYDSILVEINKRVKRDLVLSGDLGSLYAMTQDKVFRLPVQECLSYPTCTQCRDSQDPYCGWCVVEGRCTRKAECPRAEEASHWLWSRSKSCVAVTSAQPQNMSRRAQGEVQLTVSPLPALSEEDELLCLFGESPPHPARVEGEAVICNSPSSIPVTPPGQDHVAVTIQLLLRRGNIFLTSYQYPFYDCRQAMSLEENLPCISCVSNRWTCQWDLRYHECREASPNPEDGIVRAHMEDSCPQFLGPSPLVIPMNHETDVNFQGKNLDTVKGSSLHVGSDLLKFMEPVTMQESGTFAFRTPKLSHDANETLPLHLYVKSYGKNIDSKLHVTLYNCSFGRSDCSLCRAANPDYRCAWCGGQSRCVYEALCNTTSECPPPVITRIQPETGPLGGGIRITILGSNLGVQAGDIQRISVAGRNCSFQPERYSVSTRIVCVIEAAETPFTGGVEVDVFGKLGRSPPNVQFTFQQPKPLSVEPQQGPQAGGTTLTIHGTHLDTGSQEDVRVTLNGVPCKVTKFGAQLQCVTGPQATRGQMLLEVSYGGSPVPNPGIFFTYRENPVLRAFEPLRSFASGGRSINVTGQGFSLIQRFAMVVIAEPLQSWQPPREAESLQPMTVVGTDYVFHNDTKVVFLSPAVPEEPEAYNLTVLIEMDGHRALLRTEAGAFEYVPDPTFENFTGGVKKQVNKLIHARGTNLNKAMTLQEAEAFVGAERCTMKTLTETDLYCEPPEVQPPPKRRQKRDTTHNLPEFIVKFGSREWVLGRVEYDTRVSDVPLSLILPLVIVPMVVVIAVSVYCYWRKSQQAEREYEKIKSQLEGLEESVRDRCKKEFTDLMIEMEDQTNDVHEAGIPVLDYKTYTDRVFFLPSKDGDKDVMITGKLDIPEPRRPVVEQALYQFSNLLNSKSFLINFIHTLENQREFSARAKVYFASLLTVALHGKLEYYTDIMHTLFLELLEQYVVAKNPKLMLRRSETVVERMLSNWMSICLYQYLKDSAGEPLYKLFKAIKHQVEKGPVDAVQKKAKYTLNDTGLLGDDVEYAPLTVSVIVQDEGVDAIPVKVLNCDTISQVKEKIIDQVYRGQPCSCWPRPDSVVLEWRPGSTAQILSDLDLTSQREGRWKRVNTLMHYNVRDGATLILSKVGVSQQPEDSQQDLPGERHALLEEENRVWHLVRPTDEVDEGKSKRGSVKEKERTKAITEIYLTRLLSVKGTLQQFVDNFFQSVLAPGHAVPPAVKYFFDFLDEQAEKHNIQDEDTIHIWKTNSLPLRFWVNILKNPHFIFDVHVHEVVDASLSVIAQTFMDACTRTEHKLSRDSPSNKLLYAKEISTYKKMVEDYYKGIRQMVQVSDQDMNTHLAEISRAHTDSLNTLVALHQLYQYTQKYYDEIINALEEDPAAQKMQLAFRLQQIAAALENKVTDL
UniProt Q99575: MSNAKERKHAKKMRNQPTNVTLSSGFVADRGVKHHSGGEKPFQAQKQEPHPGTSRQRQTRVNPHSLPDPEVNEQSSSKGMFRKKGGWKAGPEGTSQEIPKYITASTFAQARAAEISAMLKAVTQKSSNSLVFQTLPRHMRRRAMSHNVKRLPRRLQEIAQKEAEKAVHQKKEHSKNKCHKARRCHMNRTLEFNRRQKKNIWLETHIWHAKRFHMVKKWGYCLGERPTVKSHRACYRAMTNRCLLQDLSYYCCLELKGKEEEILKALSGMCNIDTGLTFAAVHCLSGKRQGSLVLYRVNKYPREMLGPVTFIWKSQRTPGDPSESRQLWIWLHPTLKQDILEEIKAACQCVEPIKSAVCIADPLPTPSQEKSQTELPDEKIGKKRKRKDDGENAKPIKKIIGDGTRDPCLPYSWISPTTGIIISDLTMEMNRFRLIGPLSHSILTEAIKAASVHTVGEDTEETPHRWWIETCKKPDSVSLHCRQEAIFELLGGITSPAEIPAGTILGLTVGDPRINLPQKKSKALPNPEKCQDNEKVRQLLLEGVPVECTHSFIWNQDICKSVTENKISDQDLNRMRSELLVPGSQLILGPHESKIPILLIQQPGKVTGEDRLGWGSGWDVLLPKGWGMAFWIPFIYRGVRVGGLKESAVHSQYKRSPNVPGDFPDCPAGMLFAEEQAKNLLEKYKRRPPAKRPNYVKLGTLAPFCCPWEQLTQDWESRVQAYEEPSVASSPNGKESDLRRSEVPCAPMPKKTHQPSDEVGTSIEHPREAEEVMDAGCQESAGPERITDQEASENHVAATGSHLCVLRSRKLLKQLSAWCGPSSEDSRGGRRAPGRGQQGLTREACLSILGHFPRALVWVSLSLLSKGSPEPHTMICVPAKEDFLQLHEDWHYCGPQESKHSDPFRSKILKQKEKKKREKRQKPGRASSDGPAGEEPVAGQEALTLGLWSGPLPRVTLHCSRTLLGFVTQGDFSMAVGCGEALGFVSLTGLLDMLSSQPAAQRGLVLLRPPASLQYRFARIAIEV
UniProt O60664: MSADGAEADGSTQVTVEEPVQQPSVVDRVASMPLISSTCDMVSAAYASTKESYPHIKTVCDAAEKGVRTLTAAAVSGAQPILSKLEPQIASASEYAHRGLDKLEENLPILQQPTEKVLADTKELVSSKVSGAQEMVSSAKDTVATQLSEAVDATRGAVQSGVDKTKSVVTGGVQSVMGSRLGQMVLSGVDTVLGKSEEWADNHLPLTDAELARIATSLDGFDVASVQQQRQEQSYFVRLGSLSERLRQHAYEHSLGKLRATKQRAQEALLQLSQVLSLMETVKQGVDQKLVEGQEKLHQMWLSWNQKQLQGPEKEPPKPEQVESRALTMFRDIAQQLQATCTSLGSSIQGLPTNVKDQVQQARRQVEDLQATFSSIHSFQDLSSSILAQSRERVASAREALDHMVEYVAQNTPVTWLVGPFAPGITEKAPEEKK
UniProt A5A3E0, whole entry, looked up: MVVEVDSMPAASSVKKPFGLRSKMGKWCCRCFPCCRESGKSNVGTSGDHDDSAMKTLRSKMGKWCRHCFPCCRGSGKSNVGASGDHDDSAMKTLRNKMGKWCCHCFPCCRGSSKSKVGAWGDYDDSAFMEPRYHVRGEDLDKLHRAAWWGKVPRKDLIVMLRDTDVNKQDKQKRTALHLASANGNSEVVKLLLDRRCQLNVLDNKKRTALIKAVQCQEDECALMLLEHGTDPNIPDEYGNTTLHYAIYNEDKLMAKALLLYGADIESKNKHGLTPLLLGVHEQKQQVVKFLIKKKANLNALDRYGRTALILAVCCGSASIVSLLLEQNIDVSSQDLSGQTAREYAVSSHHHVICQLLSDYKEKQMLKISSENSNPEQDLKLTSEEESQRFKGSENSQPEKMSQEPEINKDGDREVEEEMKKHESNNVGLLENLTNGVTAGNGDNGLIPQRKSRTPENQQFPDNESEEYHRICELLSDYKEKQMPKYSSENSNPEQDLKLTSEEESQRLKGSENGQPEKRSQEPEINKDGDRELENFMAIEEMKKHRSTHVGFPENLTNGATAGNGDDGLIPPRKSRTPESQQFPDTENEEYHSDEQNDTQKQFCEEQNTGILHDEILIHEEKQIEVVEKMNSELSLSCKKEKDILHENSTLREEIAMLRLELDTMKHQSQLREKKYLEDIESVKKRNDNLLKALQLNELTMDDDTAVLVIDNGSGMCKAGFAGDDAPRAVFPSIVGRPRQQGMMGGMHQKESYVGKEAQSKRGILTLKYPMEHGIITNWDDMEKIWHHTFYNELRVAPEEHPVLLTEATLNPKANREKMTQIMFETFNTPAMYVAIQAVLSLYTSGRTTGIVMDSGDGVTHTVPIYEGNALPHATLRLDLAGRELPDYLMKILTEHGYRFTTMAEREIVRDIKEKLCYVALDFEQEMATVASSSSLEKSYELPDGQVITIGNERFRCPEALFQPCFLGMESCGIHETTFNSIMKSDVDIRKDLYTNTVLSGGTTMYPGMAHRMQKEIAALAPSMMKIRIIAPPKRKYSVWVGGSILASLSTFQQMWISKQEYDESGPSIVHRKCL
UniProt Q8TCS8: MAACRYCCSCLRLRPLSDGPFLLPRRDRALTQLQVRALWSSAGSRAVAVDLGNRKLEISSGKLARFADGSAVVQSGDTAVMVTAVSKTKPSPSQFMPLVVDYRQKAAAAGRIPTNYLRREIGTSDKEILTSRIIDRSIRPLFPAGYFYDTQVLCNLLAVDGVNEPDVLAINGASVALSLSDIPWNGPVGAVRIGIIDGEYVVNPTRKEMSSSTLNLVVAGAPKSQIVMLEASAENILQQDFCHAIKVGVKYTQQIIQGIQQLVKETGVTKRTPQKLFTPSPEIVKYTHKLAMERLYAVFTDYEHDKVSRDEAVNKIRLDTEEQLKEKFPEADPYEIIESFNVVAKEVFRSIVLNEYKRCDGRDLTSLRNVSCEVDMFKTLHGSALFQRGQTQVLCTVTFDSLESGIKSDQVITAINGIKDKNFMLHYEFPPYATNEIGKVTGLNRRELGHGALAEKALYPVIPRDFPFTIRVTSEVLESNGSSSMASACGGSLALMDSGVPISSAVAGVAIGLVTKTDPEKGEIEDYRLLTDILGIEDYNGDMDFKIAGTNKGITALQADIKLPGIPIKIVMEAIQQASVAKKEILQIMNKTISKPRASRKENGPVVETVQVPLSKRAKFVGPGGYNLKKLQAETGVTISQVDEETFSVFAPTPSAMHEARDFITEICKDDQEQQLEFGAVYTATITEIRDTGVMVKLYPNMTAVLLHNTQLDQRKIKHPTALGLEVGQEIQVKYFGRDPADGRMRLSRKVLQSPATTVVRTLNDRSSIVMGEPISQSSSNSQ

Legend:
Experiment in all cases: log2 fold change, soluble protein after heating vs DMSO (PISA); higher = thermal stabilisation; K562 lysate, 10 uM; active = over 0.2 and 3.5 SD of the protein, either way, in both replicates (recomputed)
[1] = compound: CCCS(=O)(=O)Nc1ccc(F)c(C(=O)c2c[nH]c3ncc(-c4ccc(Cl)cc4)cc23)c1F [vemurafenib]
Summary of the method: (§1)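 K562 pellets were dounce-homogenised in PBS pH 7.4 containing 1 mM MgCl2, and the crude extract, at 1 mg/mL protein, was exposed to 10 μM compound for 30 min. Aliquots were heated for 3 min across 48°C-58°C, pooled, brought to 0.5% NP-40 at 4°C and spun at 21,000xg for 90 min, with the supernatant taken as soluble protein. TMTpro 16plex LC-MS/MS with equalised channel sums quantified that protein. Values are log-two fold changes in thermal stability relative to solvent controls, taken from duplicates.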

[2] = compound: CCCS(=O)(=O)Nc1ccc(F)c(C(=O)c2c[nH]c3ncc(Cl)cc23)c1F
Summary of the method: as §1

[3] = compound: CCN(CCCOc1ccc2c(Nc3cc(CC(=O)Nc4cccc(F)c4)[nH]n3)ncnc2c1)CCOP(=O)(O)O [barasertib]
Summary of the method: as §1

[4] = compound: CC[C@@H]1C(=O)N(C)c2cnc(Nc3ccc(C(=O)NC4CCN(C)CC4)cc3OC)nc2N1C1CCCC1
Summary of the method: as §1

[5] = compound: CC[C@@H]1C(=O)N(C)c2cnc(Nc3ccc(C(=O)N[C@H]4CC[C@H](N5CCN(CC6CC6)CC5)CC4)cc3OC)nc2N1C(C)C [volasertib]
Summary of the method: as §1

[6] = compound: CCn1c(C(=O)N(C2CC2)C2CC2)cc2c3c(ncn3C)c(Nc3cc(C)n(C)n3)nc21
Summary of the method: as §1

[7] = compound: CCn1cc(-c2ccnc3[nH]c(-c4cccc(CN(C)C)c4)cc23)c(-c2ccc(NC(=O)N(C)C)cc2)n1
Summary of the method: as §1

[8] = compound: CN1CCC(CNc2ccc3ncc(-c4cccc(OC(F)(F)F)c4)n3n2)CC1
Summary of the method: as §1

[9] = compound: CN1CCN(CCOc2cc(OC3CCOCC3)c3c(Nc4c(Cl)ccc5c4OCO5)ncnc3c2)CC1 [saracatinib]
Summary of the method: as §1

[10] = compound: CN1CCN(c2nc(C3=C(c4c[nH]c5ccccc45)C(=O)NC3=O)c3ccccc3n2)CC1 [sotrastaurin]
Summary of the method: as §1

| Target | log2 fold change [1] | log2 fold change [2] | log2 fold change [3] | log2 fold change [4] | log2 fold change [5] | log2 fold change [6] | log2 fold change [7] | log2 fold change [8] | log2 fold change [9] | log2 fold change [10] |
| --- | --- | --- | --- | --- | --- | --- | --- | --- | --- | --- |
| POGLUT1 (UniProt Q8NBL1) | inactive: 0.008 | inactive: -0.018 | inactive: -0.001 | inactive: -0.02 | inactive: -0.015 | inactive: 0.024 | inactive: 0.01 | inactive: -0.023 | inactive: -0.007 | inactive: 0.041 |
| POLR3A (UniProt O14802) | inactive: -0.004 | inactive: 0.008 | inactive: 0.017 | inactive: -0.031 | inactive: -0.012 | inactive: 0.005 | inactive: -0.108 | inactive: 0.082 | inactive: 0.014 | inactive: -0.014 |
| PM20D2 (UniProt Q8IYS1) | inactive: -0.101 | inactive: 0.008 | inactive: -0.131 | inactive: 0.116 | inactive: -0.041 | inactive: 0.182 | – | – | – | – |
| PON2 (UniProt Q15165) | inactive: 0.066 | inactive: 0.035 | inactive: 0.097 | inactive: 0.018 | inactive: -0.027 | inactive: -0.013 | inactive: 0.045 | inactive: 0 | inactive: 0.162 | inactive: 0.038 |
| POLG (UniProt P54098) | inactive: -0.01 | inactive: -0.045 | inactive: -0.046 | inactive: 0.017 | inactive: -0.087 | inactive: -0.035 | inactive: -0.207 | inactive: 0.166 | inactive: 0.002 | inactive: -0.055 |
| POLA1 (UniProt P09884) | inactive: 0.002 | inactive: 0 | inactive: 0.042 | inactive: 0.021 | inactive: -0.012 | inactive: 0.03 | inactive: -0.009 | inactive: -0.016 | inactive: -0.003 | inactive: 0.004 |
| PODXL2 (UniProt Q9NZ53) | inactive: 0.237 | inactive: -0.131 | inactive: 0.021 | inactive: -0.02 | inactive: 0 | inactive: -0.124 | inactive: 0.012 | inactive: -0.013 | inactive: 0.255 | inactive: 0.07 |
| PLSCR1 (UniProt O15162) | inactive: 0.032 | inactive: -0.004 | inactive: 0.003 | inactive: 0.013 | inactive: 0.046 | inactive: 0.027 | inactive: -0.094 | inactive: 0.198 | inactive: 0.051 | inactive: 0.002 |
| PNKP (UniProt Q96T60) | inactive: 0 | inactive: -0.012 | inactive: 0.132 | inactive: -0.068 | inactive: -0.1 | inactive: -0.04 | inactive: -0.236 | inactive: 0.174 | inactive: 0.25 | inactive: 0.027 |
| PLXNB2 (UniProt O15031) | inactive: 0.011 | inactive: -0.007 | inactive: 0.008 | inactive: 0.051 | inactive: -0.021 | inactive: -0.003 | inactive: -0.043 | inactive: -0.019 | inactive: 0.005 | inactive: 0.024 |
| PNPLA2 (UniProt Q96AD5) | inactive: 0.052 | inactive: 0.017 | inactive: 0.039 | inactive: 0.009 | inactive: 0 | inactive: 0.022 | inactive: 0.001 | inactive: 0.01 | inactive: -0.059 | inactive: -0.118 |
| PNISR (UniProt Q8TF01) | inactive: 0.004 | inactive: 0.017 | inactive: -0.041 | inactive: 0.046 | inactive: 0.014 | inactive: 0.004 | inactive: -0.085 | inactive: 0.063 | inactive: 0.006 | inactive: 0.004 |
| POU2F1 isoform 6 (UniProt P14859) | inactive: 0.028 | inactive: 0.006 | inactive: -0.019 | inactive: 0.122 | inactive: -0.011 | inactive: -0.009 | inactive: 0.049 | inactive: -0.086 | inactive: -0.023 | inactive: 0.05 |
| POLR2F (UniProt P61218) | inactive: 0.077 | inactive: -0.018 | inactive: 0.034 | inactive: -0.043 | inactive: 0.036 | inactive: 0.078 | active: 1.25 | inactive: -0.211 | inactive: -0.042 | inactive: 0.02 |
| PLS1 (UniProt Q14651) | inactive: -0.015 | inactive: 0.011 | inactive: -0.036 | inactive: 0.036 | inactive: 0.002 | inactive: -0.001 | inactive: 0.023 | inactive: -0.014 | inactive: 0.015 | inactive: -0.022 |
| POP1 (UniProt Q99575) | inactive: 0.006 | inactive: 0.024 | inactive: -0.021 | inactive: 0.031 | inactive: 0.005 | inactive: -0.029 | inactive: 0.06 | inactive: 0.019 | inactive: -0.001 | inactive: 0.001 |
| POT1 (UniProt Q9NUX5) | inactive: 0.07 | inactive: -0.062 | inactive: 0.066 | inactive: -0.007 | inactive: -0.014 | inactive: -0.034 | inactive: 0.007 | inactive: -0.028 | inactive: -0.008 | inactive: -0.012 |
| PPIB (UniProt P23284) | inactive: -0.014 | inactive: -0.001 | inactive: 0.002 | inactive: 0.017 | inactive: 0.028 | inactive: 0.003 | inactive: 0.008 | inactive: -0.015 | inactive: 0.005 | inactive: -0.013 |
| POMGNT1 isoform 2 (UniProt Q8WZA1) | inactive: 0.059 | inactive: 0.029 | inactive: -0.101 | inactive: -0.142 | inactive: 0.044 | inactive: -0.065 | inactive: -0.076 | inactive: 0.024 | inactive: 0.117 | inactive: 0.032 |
| PLIN3 (UniProt O60664) | inactive: 0.011 | inactive: 0.01 | inactive: 0.027 | inactive: 0.007 | inactive: 0.038 | inactive: 0.013 | inactive: 0.054 | inactive: -0.045 | inactive: -0.002 | inactive: 0.01 |
| PNKD (UniProt Q8N490) | inactive: 0.075 | inactive: 0.05 | inactive: 0.06 | inactive: -0.059 | inactive: -0.007 | inactive: 0.017 | inactive: 0.094 | inactive: -0.006 | inactive: 0.056 | inactive: -0.028 |
| POLR2E (UniProt P19388) | inactive: 0.003 | inactive: 0.036 | inactive: -0.021 | inactive: -0.014 | inactive: -0.005 | inactive: 0.039 | inactive: -0.04 | inactive: -0.026 | inactive: 0.004 | inactive: -0.012 |
| POLR1B isoform 3 (UniProt Q9H9Y6) | inactive: -0.01 | inactive: 0.011 | inactive: 0.043 | inactive: 0.005 | inactive: -0.03 | inactive: 0.039 | inactive: -0.078 | inactive: -0.016 | inactive: 0.01 | inactive: -0.025 |
| PNKD isoform 2 (UniProt Q8N490) | inactive: 0.025 | inactive: -0.004 | inactive: -0.008 | inactive: 0.041 | inactive: -0.059 | inactive: 0 | inactive: 0.041 | inactive: -0.042 | inactive: -0.032 | inactive: -0.038 |
| POLR2M (UniProt P0CAP2) | inactive: 0.014 | inactive: 0.02 | inactive: 0.021 | inactive: -0.108 | inactive: -0.024 | inactive: 0.008 | inactive: -0.055 | inactive: 0.067 | inactive: -0.007 | inactive: 0.041 |
| POTEF (UniProt A5A3E0) | inactive: 0.016 | inactive: 0.051 | inactive: 0.014 | inactive: 0.065 | inactive: -0.099 | inactive: 0.019 | inactive: -0.018 | inactive: 0.013 | inactive: 0.018 | inactive: 0.01 |
| POGLUT3 (UniProt Q7Z4H8) | inactive: 0.026 | inactive: -0.001 | inactive: 0.006 | inactive: 0.013 | inactive: -0.026 | inactive: 0.012 | inactive: -0.052 | inactive: 0.022 | inactive: 0.016 | inactive: -0.001 |
| PNPT1 (UniProt Q8TCS8) | inactive: 0.008 | inactive: 0.021 | inactive: 0.048 | inactive: 0.008 | inactive: -0.001 | inactive: -0.036 | inactive: -0.028 | inactive: 0.01 | inactive: 0.002 | inactive: 0.01 |
| PNO1 (UniProt Q9NRX1) | inactive: 0.009 | inactive: 0.041 | inactive: 0.003 | inactive: 0.009 | inactive: 0.006 | inactive: -0.049 | inactive: 0.025 | inactive: -0.062 | inactive: -0.007 | inactive: -0.032 |
| POP4 (UniProt O95707) | inactive: -0.029 | inactive: 0.011 | inactive: -0.025 | inactive: -0.005 | inactive: -0.042 | inactive: -0.03 | inactive: -0.04 | inactive: 0.03 | inactive: -0.005 | inactive: -0.053 |

Look-ups from the results shown:
log2 fold change [9] with POT1 (UniProt Q9NUX5) is entered as inactive: -0.008
log2 fold change [4] with PNPT1 (UniProt Q8TCS8) is entered as inactive: 0.008

Exported with tabs: entries from further up.
Target	log2 fold change [1]	log2 fold change [2]	log2 fold change [3]	log2 fold change [4]	log2 fold change [5]	log2 fold change [6]	log2 fold change [7]	log2 fold change [8]	log2 fold change [9]	log2 fold change [10]
POLR3A (UniProt O14802)	inactive: -0.004	inactive: 0.008	inactive: 0.017	inactive: -0.031	inactive: -0.012	inactive: 0.005	inactive: -0.108	inactive: 0.082	inactive: 0.014	inactive: -0.014
PM20D2 (UniProt Q8IYS1)	inactive: -0.101	inactive: 0.008	inactive: -0.131	inactive: 0.116	inactive: -0.041	inactive: 0.182	–	–	–	–
